Experimental data published in PubChem BioAssay AID1671190 (National Center for Advancing Translational Sciences (NCATS), 2021).
Hit rate of the full screen: of about 580,000 compounds, about 6,100 (1.1%) were called active. The inconclusive results got no clear call from the source; some entries with a clear call stand among them for comparison. The call rests on the fitted dose curve; in most records, active means well fitted inhibition curve with a large enough effect; inconclusive means small, poorly fitted or top-dose-only effect, or another doubt; inactive means no such curve, though single readings can be large or run the other way. Potencies of inconclusive entries are doubtful fits and often do not repeat.

The chains behind the UniProt entries cited, without tags or fusion partners. Where a name states a change or a piece, a line headed by the entry shows the natural chain unless it says otherwise.
UniProt P18054: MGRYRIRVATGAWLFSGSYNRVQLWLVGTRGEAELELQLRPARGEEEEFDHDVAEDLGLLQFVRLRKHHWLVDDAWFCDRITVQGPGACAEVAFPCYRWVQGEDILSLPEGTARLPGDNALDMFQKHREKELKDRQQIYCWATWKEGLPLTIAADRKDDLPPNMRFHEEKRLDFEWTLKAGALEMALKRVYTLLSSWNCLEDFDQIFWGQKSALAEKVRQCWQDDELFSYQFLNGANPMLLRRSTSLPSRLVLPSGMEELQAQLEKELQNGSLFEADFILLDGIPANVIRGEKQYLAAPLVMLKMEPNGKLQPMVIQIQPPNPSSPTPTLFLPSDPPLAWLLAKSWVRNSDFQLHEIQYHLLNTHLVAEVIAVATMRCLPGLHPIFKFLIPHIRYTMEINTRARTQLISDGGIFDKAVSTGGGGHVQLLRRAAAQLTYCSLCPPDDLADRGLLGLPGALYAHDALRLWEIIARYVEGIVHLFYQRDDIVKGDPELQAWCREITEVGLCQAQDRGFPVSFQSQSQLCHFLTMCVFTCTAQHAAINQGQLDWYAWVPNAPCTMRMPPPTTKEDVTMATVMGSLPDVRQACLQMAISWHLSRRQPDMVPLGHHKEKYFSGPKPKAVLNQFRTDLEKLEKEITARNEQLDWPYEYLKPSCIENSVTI

molecular target: Polyunsaturated fatty acid lipoxygenase ALOX12 (Homo sapiens) (UniProt P18054); assay: Primary qHTS assay for inhibitors of human arachidonate 12S-lipoxygenase (ALOX12): Round 2; conditions: purified 12hLO, xylenol orange hydroperoxide absorbance; series mostly up to 108 µM
Description: Assay Provider: Theodore R. Holman Ph.D. University of California, Santa Cruz, California Human lipoxygenase 12hLO is a member of the closely related lipoxygenase family of enzymes which catalyze the site-specific oxidation of arachidonic acid to various hormone precursor molecules and as such is a candidate for drug development in a variety of disease areas, such as cancer and inflammation. Inhibition of 12hLO activity was screened by utilizing arachidonic acid as a substrate. The extent of hydroperoxide product formation was measured by a secondary chromogenic reaction in which xylenol orange (XO, Sigma-Aldrich, cat. number 39,818-7) reacts with the ferric ions produced from the reaction between the hydroperoxide and ferrous ions. The Fe (III)-XO complex is characterized with red-shifted absorbance at 560 nm. A purified preparation of human 12hLO was supplied by Dr. Holman laboratory, University of California, Santa Cruz.
PROTOCOL TABLE SEQUENCE No. (e.g., 1, 2, 3, etc.); […] (e.g., Cells, Incubation, Reagent, etc.); VALUE; DESCRIPTION 1; Enzyme; 3 uL; 150 nM 12hLO enzyme solution dispensed in 1536-well Greiner black, clear bottom plates. 2; Compound; 23 nL; compounds and controls were added. 3; Incubate; 15 min; room temperature. 4; Substrate; 1 uL; 40 uM arachidonic acid (final concentration). 5; Incubate; 30 min; room temperature. 6; Reagent; 4 uL; Fe-XO solution was added to each well. 7; Incubation; 30 min; room temperature 8; Detector; absorbance; Read 1 at 405 nm absorbance using ViewLux (Perkin-Elmer) CCD imager. 9; Detector; absorbance; Read 2 at 573 nm absorbance using ViewLux (Perkin-Elmer) CCD imager. NOTES (numbers refer to sequence above) 1; 150 nM 12hLO (final concentration) in buffer solution (25 mM Hepes, 0.01% Triton X-100, pH 7.0) was dispensed in columns 1, 2, 5-48. Column 1 is neutral (100% activity). Buffer only was dispensed in columns 3 and 4 as no enzyme negative controls. The plates were covered with metal lids with gas-exchange holes. 2; Compounds were pin transferred via a Kalypsys Pin Tool (Wako USA) in column 5-48. Control compound was transferred in column 2, titration of nordihydroguaiaretic acid (NDGA, Sigma-Aldrich, N5023) with top concentration of 20 mM in DMSO then 1:3 dilution in duplicate. Dilution factor of 23 nL into 4 uL final assay volume. 3; Covered assay plates were incubated for 15 min at room temperature. 4; Substrate was added to start the reaction; 40 uM arachidonic acid (Sigma-Aldrich, St. Louis, MO) was dispensed throughout the plate. 6; Chromogenic detection reagent solution (divalent iron/xylenol orange, Fe-XO) was added to each well: 200 uM xylenol orange, 300 uM ferrous ammonium sulfate prepared freshly in 50 mM sulfuric acid. 8, 9; Two absorbance readouts were obtained at 405 nm and at 573 nm using a ViewLux high-throughput CCD plate imager (Perkin-Elmer). The 573 to 405 (Read 2 / Read 1) absorbance ratio was used to compute reaction progress.
Potency means the concentration at half of the fitted maximal effect.

Structure (SMILES) | Potency
CC1CC=CCC12C(=O)NC(=S)NC2=O (centres undefined) | inconclusive: 100 µM [inhibitor, single point]
C=C[C@H]1CN2CC[C@H]1C[C@@H]2CNS(=O)(=O)c1ccc(OC)cc1 | inactive
CSCC[C@@H](NC(=O)[C@@H](Cc1ccccc1)NC(=O)CNC(=O)CNC(=O)[C@@H](N)Cc1ccc(O)cc1)C(=O)O | inactive
Cc1cc(C)c(NC(=O)c2cn(Cc3ccccc3)nn2)c(C)c1 | inconclusive: 44.7 µM [inhibitor, partial curve, poor fit]
O=C(O)C(O)(c1ccccc1)C1CCCC1 (centres undefined) | inconclusive: 44.7 µM [inhibitor, partial curve, poor fit]
C=C[C@H]1CN2CC[C@H]1C[C@@H]2CNCc1ccc(OC)cc1 | inactive
O=C(O)Cn1cc(/C=C2\C(=O)NC(=O)N(Cc3ccco3)C2=O)c2ccccc21 | inconclusive: 44.7 µM [inhibitor, partial curve, poor fit]
c1ccc2c(CNC3CCCCCC3)c[nH]c2c1 | inactive
Cc1cccc(N2C(=O)NC(=O)/C(=C\c3ccc4c(c3)CCCN4Cc3ccccc3)C2=O)c1 | inconclusive: 56.2 µM [inhibitor, partial curve, poor fit]
C=CCn1c(O)c(C(C)=NCCN2CCCCC2)c(=O)[nH]c1=O | inactive
O=C(NCCN1CCC2(CC1)C(=O)NCN2c1ccccc1)C(c1ccccc1)c1ccccc1 | inconclusive: 44.7 µM [inhibitor, partial curve]
NNCc1cccnc1 | inconclusive: 10 µM [inhibitor, full curve]
Cc1ccc(C2N(c3cc(C)on3)C(=O)C3CCCN32)cc1 (centres undefined) | inconclusive: 39.8 µM [inhibitor, single point]
CN1C(=O)N(C)C(=O)C2(Cc3cc(N)ccc3N3CCN(c4ccccc4F)CC32)C1=O (centres undefined) | inconclusive: 79.4 µM [inhibitor, partial curve, poor fit]
O=C(CCN1CCCCC1)Nc1ccc(Cl)cc1C(=O)c1ccccc1 | inconclusive: 50.1 µM [inhibitor, partial curve, poor fit]
CCCCCn1c(=O)c(C(=O)NCc2ccccn2)c(O)c2ccccc21 | inconclusive: 112 µM [inhibitor, single point]
COc1ccc(OC)c(N=Cc2c(O)[nH]c(=O)[nH]c2=O)c1 | inactive
Cc1ccc2[nH]c(C)c(C(O)CN3CCC(C)CC3)c2c1 (centres undefined) | inconclusive: 50.1 µM [inhibitor, partial curve, poor fit]
O=S(=O)(NC[C@H]1C[C@@H]2CCN1C[C@@H]2CN1CCc2ccccc2C1)c1ccc(Cl)cc1 | inactive

Two entries drawn at random from the list so far, as already listed:
Structure (SMILES) | Potency
O=C(O)C(O)(c1ccccc1)C1CCCC1 (centres undefined) | inconclusive: 44.7 µM [inhibitor, partial curve, poor fit]
Cc1cc(C)c(NC(=O)c2cn(Cc3ccccc3)nn2)c(C)c1 | inconclusive: 44.7 µM [inhibitor, partial curve, poor fit]
